Laboratory results: PubChem BioAssay AID1347076 (National Center for Advancing Translational Sciences (NCATS), 2019)
Hit rate of the full screen: of about 400,000 compounds, about 13,000 (3.2%) were called active. Inconclusive means that the source gave no clear call. Such entries were picked first, then a sample of the others. Calls come from the whole dose curve; as a rule, active = well fitted cell-killing curve with a large enough effect; inconclusive = small, poorly fitted or top-dose-only effect, or effect the other way; inactive = flat fitted curve, though single readings scatter. A potency beside an inconclusive call is a rough fit, not a confirmed value.

experiment: qHTS assay for MDR1-selective chemotherapeutics: Primary screen using the drug-selected MDR subline cells KB-V1; settings: KB-V1 MDR cells viability, CellTiter-Glo, 72 h; activity change, negative = cytotoxicity: at 46.1 µM (top of the series); note: nearly all actives have a fitted effect of over 60% in size
In short: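 Cells of the MDR subline KB-V1 are plated, dosed with compound at multiple concentrations, and incubated 72 h at 37 degrees C; CellTiter-Glo is then added and luminescence read after 10 min.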
% is set by controls: 0 for no effect and ±100 for the full control effect; potency is the fitted concentration of half-maximal effect.

Row | SMILES | activity change, negative = cytotoxicity | Potency
1 | O=C(c1ccco1)N1CCC(c2nc3c(nnn3Cc3c(Cl)cccc3Cl)c(=O)[nH]2)CC1 | inactive: -1.61% | –
2 | COc1ccc(NC(=O)C[C@H]2C(=O)N(Cc3ccccc3)C[C@@H]2Cc2ccccc2)cc1 | – | inconclusive: 8.2 µM [cytotoxic, partial curve]
3 | O=c1c2sccc2n(Cc2cccc(F)c2)c(=O)n1-c1ccc(F)cc1 | – | active: 8.2 µM
4 | O=C(Cc1ccc(-c2ccccc2)cc1)Nc1ncccc1O | – | inconclusive: 32.6 µM [rising, single point]
5 | COc1cc2c(cc1OC)n(CC(=O)Nc1ccccc1)c(=O)n1nc(-c3ccccc3)nc21 | – | inconclusive: 20.6 µM [rising, partial curve]
6 | Cc1cnc(NC(=O)c2ccc3c(c2)OCCO3)s1 | – | inconclusive: 6.51 µM [cytotoxic, partial curve]
7 | CC(C)CN(C(=O)CSc1ncnc2sccc12)C1CCS(=O)(=O)C1 (stereo not given) | – | inconclusive: 29.1 µM [cytotoxic, single point]
8 | CCCc1nnc(NC(=O)C2CCN(C(=O)C3CC(=O)N(c4ccc(C)cc4)C3)CC2)s1 (stereo not given) | inactive: 17% | –
9 | CN(c1ccccc1C(=O)Nc1ccc(S(=O)(=O)N2CCCCC2)cc1)S(C)(=O)=O | – | inconclusive: 29.1 µM [cytotoxic, single point]
10 | CC(C)NC(=O)C1=NN(c2ccccc2)C(=O)CC1 | – | inconclusive: 20.6 µM [rising, single point]
11 | CCOC(=O)CN1C(=O)/C(=C/c2ccc(Cl)cc2)Oc2ccccc21 | – | inconclusive: 25.9 µM [rising, single point]
12 | CCOC(=O)C(=O)NCC(c1cccs1)S(=O)(=O)c1ccc(F)cc1 (stereo not given) | inactive: 9.56% | –
13 | Cc1nn(C)c(C(=O)NCc2ccc(Cl)cc2)c1Cl | – | inconclusive: 23.1 µM [cytotoxic, partial curve, poor fit]
14 | FC(F)(F)C(Oc1nc(Nc2ccc(Cl)cc2)nc(N2CCOCC2)n1)C(F)(F)F | inactive: -13.4% | –
15 | CCOc1ccc(S(=O)(=O)N(CC(=O)N/N=C/c2ccc(-c3ccc([N+](=O)[O-])cc3)o2)c2ccccc2)cc1 | – | inconclusive: 23.1 µM [cytotoxic, single point]
16 | COc1cc(/C=N/NC(=O)COc2cccc(F)c2)ccc1OS(=O)(=O)c1ccc(C)cc1 | – | active: 5.8 µM
17 | O=C(CCN1CCOCC1)N1CCc2c([nH]c3ccccc23)C1c1cccc(Cl)c1 (stereo not given) | – | inconclusive: 7.31 µM [cytotoxic, partial curve]
18 | Cc1ccc(NC(=O)c2sccc2SCc2cccc(C(F)(F)F)c2)cc1 | – | inconclusive: 20.6 µM [cytotoxic, single point]
19 | O=C(Nc1ccccc1C(F)(F)F)c1cc(S(=O)(=O)N2CCC3(CC2)OCCO3)ccc1F | – | inconclusive: 11.6 µM [cytotoxic, partial curve]
20 | Cc1cc(NC(=O)CSc2nc3c(c(=O)n(C)c(=O)n3C)n2C(C)C)no1 | – | inconclusive: 23.1 µM [cytotoxic, single point]
21 | O=C1NC[C@@H](CCCCN2C[C@H](Cc3ccc(O)cc3)N(Cc3ccccc3)C(=O)C2=O)N(CCc2ccc(O)cc2)C1=O | – | inconclusive: 5.8 µM [rising, full curve]
22 | CCOC(=O)COc1ccc2c(=O)c(-c3ccccc3)coc2c1 | – | inconclusive: 5.8 µM [rising, full curve]
23 | O=Nc1nc2ncccn2c1-c1ccccc1 | – | inconclusive: 20.6 µM [cytotoxic, partial curve, poor fit]
24 | Cc1ccc(Nc2nc3c(S(=O)(=O)c4ccccc4)nnn3c3ccc(Cl)cc23)c(C)c1 | – | inconclusive: 9.2 µM [rising, partial curve]

At a glance, some entries already given.
Row | SMILES | activity change, negative = cytotoxicity | Potency
3 | O=c1c2sccc2n(Cc2cccc(F)c2)c(=O)n1-c1ccc(F)cc1 | – | active: 8.2 µM
4 | O=C(Cc1ccc(-c2ccccc2)cc1)Nc1ncccc1O | – | inconclusive: 32.6 µM [rising, single point]
5 | COc1cc2c(cc1OC)n(CC(=O)Nc1ccccc1)c(=O)n1nc(-c3ccccc3)nc21 | – | inconclusive: 20.6 µM [rising, partial curve]
6 | Cc1cnc(NC(=O)c2ccc3c(c2)OCCO3)s1 | – | inconclusive: 6.51 µM [cytotoxic, partial curve]

Next structures follow.

Row | SMILES | activity change, negative = cytotoxicity | Potency
25 | Cc1cc2c(cc(C(=O)OC(C(=O)NC3CCCCC3)C(C)C)n2C)o1 (stereo not given) | – | inconclusive: 29.1 µM [cytotoxic, single point]
26 | c1coc(CNc2ncnc3c2oc2ccccc23)c1 | – | inconclusive: 29.1 µM [cytotoxic, single point]
27 | C=CCn1c(-c2cccn(Cc3ccccc3)c2=O)n[nH]c1=S | inactive: 4.34% | –
28 | CCCCOC(=O)c1c(C)oc2ccc(NS(=O)(=O)c3ccc(F)cc3C)cc12 | inactive: -6.73% | –
29 | NC(=O)C(c1ccc(Cl)cc1Cl)c1ncc(C(F)(F)F)cc1Cl (stereo not given) | – | inconclusive: 29.1 µM [cytotoxic, single point]
30 | O=C(c1ccccc1NS(=O)(=O)c1ccc([N+](=O)[O-])cc1[N+](=O)[O-])N1O[C@@H]2C=C[C@H]1C2 | inactive: 0.0002% | –
31 | COc1ccc(OC)c2c1CC(C)(C)NC2=O | – | inconclusive: 29.1 µM [rising, single point]
32 | CCOc1cc(/C=N/NC(=O)C(C)Sc2ccccc2)ccc1O (stereo not given) | – | inconclusive: 29.1 µM [rising, single point]
33 | COc1ccc(N2CCN(C(CNC(=O)c3cccc(OC)c3)c3cccnc3)CC2)cc1 (stereo not given) | – | inconclusive: 7.31 µM [cytotoxic, partial curve]
34 | CCCc1cc(C(=O)Cc2ccc(F)cc2)c(O)cc1O | inactive: 21.1% | –
35 | CC1CN(C(=O)c2cccs2)CC(C)O1 (stereo not given) | – | inconclusive: 18.4 µM [rising, partial curve]
36 | Cc1nonc1CC(=O)NC1CC(C)(C)Cc2c1cnn2-c1ccc(F)cc1 (stereo not given) | – | inconclusive: 4.11 µM [cytotoxic, partial curve, poor fit]
37 | COc1ccc(C(=O)N2CCN(c3cccc(Cl)c3)CC2)cc1S(=O)(=O)NC1CC1 | inactive: -10.4% | –
38 | CCN(CC)C(=O)C1CCN(c2cc(C)nc3c(-c4ccc(OC)c(OC)c4)c(C)nn23)CC1 | inactive: -0.636% | –
39 | CN1c2ccccc2C(C)(C)C12C=Nc1c(ccc3ccccc13)O2 (stereo not given) | inactive: -9.8% | –
40 | CCOC(=O)C(CC)(CC)C(=O)/C=C/c1ccc(Br)cc1 | – | active: 18.4 µM
41 | O=c1[nH]cnc2sc3c(c12)CCCC3 | – | inconclusive: 18.4 µM [cytotoxic, single point]
42 | Cc1sc2ncnc(N3CCC(C(=O)NNC(=O)COc4ccccc4F)CC3)c2c1C | inactive: -3.15% | –
43 | Cc1ccccc1Cn1c(C)c(C(=O)N(C)Cc2ccc(F)cc2)sc1=O | – | active: 16.4 µM
44 | O=C(N/N=C/C(Br)=C/c1ccccc1)NC1CCCCC1 | inactive: 10.2% | –
45 | Cn1nc(C(C)(C)C)c([N+](=O)[O-])c1C(=O)NC1CCCCC1 | – | inconclusive: 29.1 µM [rising, partial curve, poor fit]
46 | N#C/C(=C\c1ccccc1[N+](=O)[O-])C(=O)NCc1ccccc1 | inactive: -22% | –
47 | Cc1cccc(N2CN=c3s/c(=C\c4ccncc4)c(=O)n3C2)c1 | inactive: 0% | –
48 | CCOC(=O)CNC(=S)SC | inactive: 25.8% | –

Row | SMILES | activity change, negative = cytotoxicity | Potency
49 | COC(=O)c1ccccc1NS(C)(=O)=O | – | inconclusive: 20.6 µM [rising, single point]
50 | COc1cccc(C2Nc3ccccc3C(=O)N2Cc2ccccc2)c1 (stereo not given) | – | inconclusive: 29.1 µM [cytotoxic, single point]
51 | c1cncc(-c2nnc3sc(C4CCCCC4)nn23)c1 | inactive: -0.729% | –
52 | CC1CCCCC1NC(=O)/C(C#N)=C/c1ccc2c(c1)OCCO2 (stereo not given) | – | inconclusive: 16.4 µM [cytotoxic, single point]
53 | CCCC(=O)Nc1ccc(NC(=S)NC(=O)c2ccccc2[N+](=O)[O-])cc1 | – | inconclusive: 29.1 µM [cytotoxic, single point]
54 | COc1ccc([C@H]2/C=C\CN(C(=O)c3ccc(C)cc3)[C@@H](C)C(=O)N2Cc2ccc(F)cc2)cc1 | – | inconclusive: 29.1 µM [cytotoxic, single point]
55 | COC(=O)/C=C1/SC(=Nc2ccc(Cl)c(Cl)c2)NC1=O | inactive: 14.4% | –
56 | CCOc1cccc2cc(C(=O)NCc3ccccc3Cl)c(=O)oc12 | inactive: 0% | –
57 | CC(C)c1ccc(NC(=O)CCNS(=O)(=O)c2ccc3c(c2)oc(=O)n3C)cc1 | – | inconclusive: 29.1 µM [rising, single point]
58 | Cc1cccc(-c2nc(C)c(CCNC(=O)c3cccs3)s2)c1 | – | inconclusive: 7.31 µM [cytotoxic, partial curve]
59 | COc1ccc(OC)c(S(=O)(=O)NCC(c2ccco2)N2CCc3ccccc32)c1 (stereo not given) | – | inconclusive: 29.1 µM [cytotoxic, single point]
60 | O=C(NCC(c1cccnc1)N1CCc2ccccc2C1)C(=O)Nc1ccc(F)cc1F (stereo not given) | inactive: -22.8% | –
61 | CCOC(=O)c1cc(CC)sc1NC(=O)CC1SC(N)=NC1=O (stereo not given) | – | inconclusive: 10.3 µM [rising, partial curve]
62 | CC1=C/C(=C(/c2cc(C)c(O)c(Br)c2)c2ccccc2S(=O)(=O)O)C=C(Br)C1=O | – | inconclusive: 32.6 µM [cytotoxic, partial curve, poor fit]
63 | O=C(CN1CCCN(Cc2cccc(F)c2)S1(=O)=O)Nc1ccc2c(c1)OCCO2 | inactive: -20.7% | –
64 | COc1cc(CCC(=O)Nc2cccc(C(F)(F)F)c2)cc(OC)c1OC | inactive: -2.12% | –
65 | O=C(O)c1ccc(-c2nc(-c3ccccc3)cs2)cc1 | – | inconclusive: 23.1 µM [cytotoxic, single point]
66 | CCCNS(=O)(=O)c1ccc(OCC(=O)NCC2CCCO2)cc1 (stereo not given) | – | inconclusive: 29.1 µM [rising, single point]
67 | COC(=O)C1=CN(c2ccc(OC)cc2)C(N)=C(C#N)C1c1ccccc1F (stereo not given) | – | inconclusive: 20.6 µM [cytotoxic, single point]
68 | Cc1ccc(-c2noc(CN3CCN(Cc4ccccc4)CC3)n2)cc1 | – | inconclusive: 20.6 µM [cytotoxic, single point]
69 | O=C(CSc1oc(-c2ccc(F)cc2)nc1S(=O)(=O)c1ccc(Cl)cc1)c1ccccc1 | inactive: -10.8% | –
70 | C=C1CCN([C@H](C(=O)OCc2cccc(C)c2)C(C)C)S(=O)(=O)c2ccccc21 | – | inconclusive: 23.1 µM [cytotoxic, single point]
